## Screening data, single-dose tests

The chains behind the UniProt entries cited, without tags or fusion partners.
UniProt I6X8D2, whole entry: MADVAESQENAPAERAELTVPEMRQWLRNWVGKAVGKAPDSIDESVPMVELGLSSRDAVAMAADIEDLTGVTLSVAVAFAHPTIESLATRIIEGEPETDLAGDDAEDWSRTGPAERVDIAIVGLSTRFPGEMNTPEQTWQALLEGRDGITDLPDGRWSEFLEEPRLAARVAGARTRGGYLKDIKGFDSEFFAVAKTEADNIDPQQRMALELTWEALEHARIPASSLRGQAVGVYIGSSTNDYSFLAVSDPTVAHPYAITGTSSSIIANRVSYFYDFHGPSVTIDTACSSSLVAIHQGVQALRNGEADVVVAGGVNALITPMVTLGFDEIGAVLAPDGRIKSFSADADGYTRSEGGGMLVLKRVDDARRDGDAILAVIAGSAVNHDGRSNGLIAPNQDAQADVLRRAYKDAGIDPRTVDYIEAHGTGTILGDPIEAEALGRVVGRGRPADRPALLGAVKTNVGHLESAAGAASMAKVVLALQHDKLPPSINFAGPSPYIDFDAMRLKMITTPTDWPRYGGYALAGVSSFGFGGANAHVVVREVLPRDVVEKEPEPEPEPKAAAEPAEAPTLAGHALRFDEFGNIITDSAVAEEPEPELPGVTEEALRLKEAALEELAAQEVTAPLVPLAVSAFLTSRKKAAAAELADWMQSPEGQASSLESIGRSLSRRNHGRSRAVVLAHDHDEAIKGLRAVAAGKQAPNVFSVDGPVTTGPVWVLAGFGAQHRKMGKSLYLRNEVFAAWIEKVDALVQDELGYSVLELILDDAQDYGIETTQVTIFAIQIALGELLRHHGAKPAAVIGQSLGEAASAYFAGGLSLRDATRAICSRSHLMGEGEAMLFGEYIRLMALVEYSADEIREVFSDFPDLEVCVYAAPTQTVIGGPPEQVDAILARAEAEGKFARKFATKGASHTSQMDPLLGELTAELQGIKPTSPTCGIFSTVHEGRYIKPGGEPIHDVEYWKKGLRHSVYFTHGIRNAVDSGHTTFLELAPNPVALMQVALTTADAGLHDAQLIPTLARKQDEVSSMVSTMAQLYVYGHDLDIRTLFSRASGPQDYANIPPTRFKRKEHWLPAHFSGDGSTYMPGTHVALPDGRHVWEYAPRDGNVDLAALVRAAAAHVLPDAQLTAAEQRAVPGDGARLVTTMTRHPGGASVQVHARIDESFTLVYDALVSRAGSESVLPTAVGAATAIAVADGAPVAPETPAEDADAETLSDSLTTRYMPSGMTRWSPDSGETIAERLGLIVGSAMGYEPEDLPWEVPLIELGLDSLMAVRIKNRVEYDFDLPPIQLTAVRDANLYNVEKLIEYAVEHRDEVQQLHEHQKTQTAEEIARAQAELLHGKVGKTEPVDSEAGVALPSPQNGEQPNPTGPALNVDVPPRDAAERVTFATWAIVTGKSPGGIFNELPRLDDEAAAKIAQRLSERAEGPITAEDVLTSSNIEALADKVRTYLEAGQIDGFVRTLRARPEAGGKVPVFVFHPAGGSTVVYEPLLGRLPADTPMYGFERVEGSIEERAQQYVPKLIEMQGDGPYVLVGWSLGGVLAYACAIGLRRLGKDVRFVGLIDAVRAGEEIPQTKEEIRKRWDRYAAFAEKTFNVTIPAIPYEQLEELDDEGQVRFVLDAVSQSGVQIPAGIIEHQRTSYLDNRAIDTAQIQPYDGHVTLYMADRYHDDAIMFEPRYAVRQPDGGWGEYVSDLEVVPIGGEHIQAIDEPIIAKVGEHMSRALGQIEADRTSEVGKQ

The values are deposited in ChEMBL (CHEMBL3988442, “University of Dundee, Small-Polar-MMV Screening Library” (2021)).

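Enzyme assay of the thioesterase domain of polyketide synthase 13; the read-out is not stated. Target: Polyketide synthase Pks13, Mycobacterium tuberculosis (UniProt I6X8D2). Compounds at 30 µM. Higher reads as stronger inhibition (inferred from which compounds were picked for retests). About 67,000 compounds were tested under these conditions; 0.46% (about 300) showed 50% or more at least once.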

Results are given as percent effect.
The controls that fix the scale are not given in the record; negative values are as filed.
Compounds were drawn at random from those tested, without regard to their results.

* Cc1cccc(C)c1NC(=O)c1cc(S(N)(=O)=O)c(C)o1 : 1.38%
* CC(C)(C(N)=O)N1CCN(C(=O)c2ccn(-c3cccc(Cl)c3)n2)CC1 : -2.616%
* CCOc1ccccc1OC1CCN(Cc2ccn(C)c(=O)c2)CC1 : -18.35%
* CC(=O)N1CCN(C(=O)c2cccc(OCc3cscn3)c2)CC1 : -28.35%
* O=C1C(NS(=O)(=O)c2cc(F)cc(F)c2)CCN1Cc1ccccc1 (stereo not given) : -38.35%
* CCc1nccn1-c1cncc(C2CCCN2Cc2ccccc2)n1 (stereo not given) : 18.42%
* Cc1nc(C(C)C)ncc1C(=O)N1CCC(c2ccccc2C(=O)O)C1 (stereo not given) : -16.17%
* O=C(CO)N1CCCC2(CCC(=O)N(CC3CC3)C2)C1 (stereo not given) : -15.15%
* O=C(NCC1CC1)[C@@H]1CCO[C@@H]2CCN(Cc3ccc(F)cc3)C[C@H]21 : -0.2889%
* COCC1c2nnn(CC3CC3)c2CCN1C(=O)c1cccc(F)c1 (stereo not given) : -13.52%
* O=C(NCc1cncc2c1CCN(CC1CCOC1)C2)c1ccno1 (stereo not given) : -20.74%
* COC1CCN(c2ccc(NC(=O)Cn3cccc3)cc2)CC1 : -1.318%
* Cc1ccc(-c2nnc(CN3CCn4c(nnc4C4CC4)C3)o2)cc1 : 0.4088%
* CN1C[C@]2(CC[C@@H](C(=O)N3CCOCC3)CC2)Oc2ccccc2C1=O : 5.495%
* CN(C)C(=O)CCC1CCCN(Cc2ccc(-c3cccnc3)cc2)C1 (stereo not given) : -27.66%
* CC(C)C(=O)N1CCN(C(=O)c2cc(C(C)C)no2)[C@H]2CS(=O)(=O)C[C@H]21 : -4.426%
* Cc1nc(CN(C)C2CCN(CCCc3ccccc3)C2)no1 (stereo not given) : -15.59%
* CCCC1CCCN(Cc2csc(-c3cnn(C)c3)n2)CC1 (stereo not given) : -8.907%
* CS(=O)(=O)NC1CCN(C(=O)NCc2cccnc2)CC1 : -5.789%
* CN1C(=O)CC(C(=O)O)C12CCN(c1ccc3ccccc3n1)CC2 (stereo not given) : 12.75%
* Cc1cnc(CNC(=O)[C@@]23CCO[C@@H]2CCNC3)cn1 : 2.028%
* O=C(c1cscn1)N1CCc2ncc(CN3CCCC3)n2CC1 : -3.27%
* COC(=O)CCNC(=O)c1cccc(C(=O)N(C)c2ccccc2)c1 : -2.935%
* Cc1ncc(C(=O)NCCNC(=O)Cc2cccc(F)c2)s1 : 4.795%
* COCC(=O)N1CC[C@]2(O)CCN(Cc3cccnc3OC)C[C@@H]2C1 : -5.193%
* COc1nsc2nc(C3CCCN3c3ncccn3)ccc12 (stereo not given) : 4.28%
* O=c1c(CN2CCCCC2)coc2ccc(Cl)cc12 : -26.46%
* CN(Cc1cc[nH]n1)C(C(=O)O)c1ccc(Cl)cc1 (stereo not given) : -25.21%
* O=C(c1cnc(-c2ccccc2)s1)N1CCC2(CC1)OCCO2 : 4.85%
* Oc1cc(CN2CCCCC2c2cccnc2)nc2c(F)cccc12 (stereo not given) : -12.01%
* COCCN1CCC(CNC(=O)C2(c3cc(C)cc(C)c3)CCC2)C1 (stereo not given) : 1.864%
* CC(=O)NC1CCCN(C(=O)NCc2ccc(-n3cccn3)cc2)C1 (stereo not given) : -6.866%
* c1cnc(N2CCOCC3(CN(Cc4ccsc4)CCO3)C2)nc1 (stereo not given) : -35.05%
* Cn1c(C2CC2)nc2cc(NC(=O)C3(O)CCCC3)ccc21 : -3.167%
* O=C(C1CCCC1)N1CCN(Cc2nc(-c3ccco3)no2)CC1 : -12.66%
* Cc1cccc(C)c1OC1CN(C(=O)C2CC(=O)N(C(C)(C)C)C2)C1 (stereo not given) : -4.988%
* CCC(O)CN1CCN(C(=O)CCSC)CC1 (stereo not given) : 6.166%
* CC(C)c1cncnc1N1CC[C@H](N2CCOCC2)[C@H](CCCO)C1 : -31.16%
* CC(NC(=O)CN1C=Nc2ccccc2S1(=O)=O)C1CC1 (stereo not given) : -10.93%
* CN(C)C(=O)CO[C@H]1CN(Cc2ccccc2)[C@@H]2CCCO[C@H]12 : -6.67%
* c1ccc(CN2CCOC3CNCC[C@H]32)cc1 (stereo not given in full) : 1.804%
* Cc1cn2c(n1)CCC(NC(=O)CCCOCc1ccccc1)C2 (stereo not given) : -0.5223%
* CC(=O)N1CC2(CCN(C(=O)CO)CC2)c2cc(C)ccc21 : -25.97%
* CCc1c(C(=O)NCC2CCS(=O)(=O)C2)cnn1-c1ccc(C)cc1 (stereo not given) : -32.81%
* CCNc1cc2c(nn1)CCN(C(=O)c1cc3c(s1)CCOC3)C2 : -7.031%
* CC(C)C(C)NC(=O)Nc1ccc(CC(N)=O)cc1 (stereo not given) : -12.87%
* CC(C)c1nc(C(=O)N2CCOCC2CC(=O)c2ccco2)c[nH]1 (stereo not given) : -16.22%
* Cc1cc(C)c(C(=O)NC2CCN(c3ncccc3C#N)CC2)c(=O)[nH]1 : -16.75%
* CN(CCc1ccccc1)Cc1c(C2CC2)[nH]c2ncccc12 : -17.68%
* COc1cc(C(=O)N2CCC(c3n[nH]c(C)n3)CC2)cc(OC)c1C : -10.18%
* Cc1cc(O)c(OCC(=O)/N=c2\[nH]c(C)c(C)s2)cn1 : -13.84%
* CS(=O)(=O)N1CCC(Nc2ccnc3ccc(Cl)cc23)CC1 : 1.957%
* Cc1ccc(C)c(NC(=O)c2n[nH]c(-n3cnnc3)n2)c1 : -17.48%
* COCCN1CCC(c2nc3ccc(-c4ccccc4)cn3n2)CC1 : 0.07437%
* O=C1CCC(C(=O)N2CCOC(Cc3ccccc3Cl)C2)=NN1 (stereo not given) : -21.19%

For reference, 7 entries once more:

structure,effect
O=C(C1CCCC1)N1CCN(Cc2nc(-c3ccco3)no2)CC1,-12.66%
CN(C)C(=O)CCC1CCCN(Cc2ccc(-c3cccnc3)cc2)C1 (stereo not given),-27.66%
O=C(NCc1cncc2c1CCN(CC1CCOC1)C2)c1ccno1 (stereo not given),-20.74%
CCCC1CCCN(Cc2csc(-c3cnn(C)c3)n2)CC1 (stereo not given),-8.907%
CCc1nccn1-c1cncc(C2CCCN2Cc2ccccc2)n1 (stereo not given),18.42%
O=C(c1cnc(-c2ccccc2)s1)N1CCC2(CC1)OCCO2,4.85%
COC1CCN(c2ccc(NC(=O)Cn3cccc3)cc2)CC1,-1.318%